These are yes or no findings as the source states them, for the method shown. In cells and extracts the contact can be indirect. Some entries that bind do so weakly or less than the wild type. Where a sequence is shown, tags or fusion partners need not be part of it.
T1: human P2X4 receptor subunit, full length, C-terminally labelled with GFP or RFP (human) (UniProt Q99571)
T1 sequence: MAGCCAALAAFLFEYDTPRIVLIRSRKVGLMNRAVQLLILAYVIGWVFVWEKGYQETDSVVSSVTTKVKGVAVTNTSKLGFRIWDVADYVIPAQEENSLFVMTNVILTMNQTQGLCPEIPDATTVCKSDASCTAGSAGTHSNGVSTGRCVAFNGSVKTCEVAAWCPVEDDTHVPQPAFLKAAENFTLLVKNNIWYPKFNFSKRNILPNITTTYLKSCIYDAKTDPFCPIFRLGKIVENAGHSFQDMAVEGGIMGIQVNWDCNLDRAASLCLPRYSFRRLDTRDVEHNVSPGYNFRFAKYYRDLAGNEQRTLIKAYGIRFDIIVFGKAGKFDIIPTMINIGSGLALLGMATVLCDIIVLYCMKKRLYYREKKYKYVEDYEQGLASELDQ

T2: human P2X7 receptor subunit, full length, C-terminally labelled with GFP or RFP (human) (UniProt Q99572)
T2 sequence: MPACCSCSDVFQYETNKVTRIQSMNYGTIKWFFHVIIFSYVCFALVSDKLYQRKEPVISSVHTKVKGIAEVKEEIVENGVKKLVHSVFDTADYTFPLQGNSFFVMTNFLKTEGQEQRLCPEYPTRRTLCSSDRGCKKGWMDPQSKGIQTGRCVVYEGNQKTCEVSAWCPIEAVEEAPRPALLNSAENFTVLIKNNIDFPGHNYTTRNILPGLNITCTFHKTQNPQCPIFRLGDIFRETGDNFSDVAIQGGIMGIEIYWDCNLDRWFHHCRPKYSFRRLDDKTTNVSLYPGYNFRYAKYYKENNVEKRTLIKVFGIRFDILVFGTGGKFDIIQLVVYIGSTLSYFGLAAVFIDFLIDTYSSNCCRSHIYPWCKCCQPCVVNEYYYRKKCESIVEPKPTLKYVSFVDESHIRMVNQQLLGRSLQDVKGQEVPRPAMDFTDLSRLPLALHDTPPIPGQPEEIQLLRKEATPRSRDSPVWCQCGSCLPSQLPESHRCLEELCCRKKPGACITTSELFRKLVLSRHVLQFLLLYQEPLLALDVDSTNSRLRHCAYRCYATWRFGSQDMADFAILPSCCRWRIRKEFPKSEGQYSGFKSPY


Columns and labels:
[1] = target: T1, human P2X4 receptor subunit, full length, C-terminally labelled with GFP or RFP (human); assay: FRET or BRET; donor (GFP) dequenching after acceptor (RFP) photobleaching; GFP- and RFP-labelled subunits coexpressed in intact Xenopus laevis oocytes; confocal laser scanning microscope, at the oocyte pole or equator, in ORi pH 7.4; FRET efficiency by extrapolation to complete acceptor bleaching
[2] = target: T2, human P2X7 receptor subunit, full length, C-terminally labelled with GFP or RFP (human); assay: as above

| binding [1] | binding [2] | Binder |
| --- | --- | --- |
| no binding |  | human glycine receptor α1 subunit labelled with GFP after the signal peptide (SP-GFP-hGLYRA1) (receptor, UniProt P23415-2 29-449) ARSAPKPMSPSDFLDKLMGRTSGYDARIRPNFKGPPVNVSCNIFINSFGSIAETTMDYRVNIFLRQQWNDPRLAYNEYPDDSLDLDPSMLDSIWKPDLFFANEKGAHFHEITTDNKLLRISRNGNVLYSIRITLTLACPMDLKNFPMDVQTCIMQLESFGYTMNDLIFEWQEQGAVQVADGLTLPQFILKEEKDLRYCTKHYNTGKFTCIEARFHLERQMGYYLIQMYIPSLLIVILSWISFWINMDAAPARVGLGITTVLTMTTQSSGSRASLPKVSYVKAIDIWMAVCLLFVFSALLEYAAVNFVSRQHKELLRFRRKRRHHKEDEAGEGRFNFSAYGMGPACLQAKDGISVKGANNSNTTNPPPAPSKSPEEMRKLFIQRAKKIDKISRIGFPMAFLIFNMFYWIIYKIVRREDVHNQ |
| binds | binds | C-terminally truncated human P2X7 subunit hP2X7^1-408, C-terminally labelled with GFP or RFP (domain or fragment, UniProt Q99572-1 1-408) MPACCSCSDVFQYETNKVTRIQSMNYGTIKWFFHVIIFSYVCFALVSDKLYQRKEPVISSVHTKVKGIAEVKEEIVENGVKKLVHSVFDTADYTFPLQGNSFFVMTNFLKTEGQEQRLCPEYPTRRTLCSSDRGCKKGWMDPQSKGIQTGRCVVYEGNQKTCEVSAWCPIEAVEEAPRPALLNSAENFTVLIKNNIDFPGHNYTTRNILPGLNITCTFHKTQNPQCPIFRLGDIFRETGDNFSDVAIQGGIMGIEIYWDCNLDRWFHHCRPKYSFRRLDDKTTNVSLYPGYNFRYAKYYKENNVEKRTLIKVFGIRFDILVFGTGGKFDIIQLVVYIGSTLSYFGLAAVFIDFLIDTYSSNCCRSHIYPWCKCCQPCVVNEYYYRKKCESIVEPKPTLKYVSFVDESH |
| binds |  | human P2X4 receptor subunit, full length, C-terminally labelled with GFP or RFP (receptor, UniProt Q99571-1 1-388) MAGCCAALAAFLFEYDTPRIVLIRSRKVGLMNRAVQLLILAYVIGWVFVWEKGYQETDSVVSSVTTKVKGVAVTNTSKLGFRIWDVADYVIPAQEENSLFVMTNVILTMNQTQGLCPEIPDATTVCKSDASCTAGSAGTHSNGVSTGRCVAFNGSVKTCEVAAWCPVEDDTHVPQPAFLKAAENFTLLVKNNIWYPKFNFSKRNILPNITTTYLKSCIYDAKTDPFCPIFRLGKIVENAGHSFQDMAVEGGIMGIQVNWDCNLDRAASLCLPRYSFRRLDTRDVEHNVSPGYNFRFAKYYRDLAGNEQRTLIKAYGIRFDIIVFGKAGKFDIIPTMINIGSGLALLGMATVLCDIIVLYCMKKRLYYREKKYKYVEDYEQGLASELDQ |

Reference: publication PMC5702805
